These are yes or no findings as the source states them, for the method shown. In cells and extracts the contact can be indirect. A yes stands for co-enrichment or nearness to the bait. Other partners may have been found. No binding means not detected with the bait.
B1: Rmt2 (endogenous) (enzyme, UniProt Q03305 1-412)
chain: MSELHALLTFPERPISQSYYVPKLQHFLKSGIPATYTLEQVAAFEHEEKNRNGDKEFRESTDDNKTSNTTPLHVLARSLPLDIKDEELQVVMDMMNILFEYGAGWNFIDYEDKTVGDLFLERNQSRESPLYRRLVEAGVSAELLLRKLNGGDVEFLDTDELIGIEPEESVQTAVDGQKEESVGSDDDATAANQQVYLKTELEYKDDALITKENKDGVMMDWETKIMELASETLFPDPEATNSATILNIGFGMGIIDTFIQARKPYRHYICEAHPDVLAKMKMDGWYEKDNVVILEGRWQDTLNNLLDKGEVFFDGIYYDTFSEHYQDILDLYDVVVGLIKPEGVFSFFNGLGADRSLCYDVYKEIVEIDVATYGMKCDYTRYSLDEQLPDWNDVKRSYFNCNYYYHPRITFA
B2: Hmt1 (also termed Rmt1) (endogenous) (enzyme, UniProt P38074 1-348)
chain: MSKTAVKDSATEKTKLSESEQHYFNSYDHYGIHEEMLQDTVRTLSYRNAIIQNKDLFKDKIVLDVGCGTGILSMFAAKHGAKHVIGVDMSSIIEMAKELVELNGFSDKITLLRGKLEDVHLPFPKVDIIISEWMGYFLLYESMMDTVLYARDHYLVEGGLIFPDKCSIHLAGLEDSQYKDEKLNYWQDVYGFDYSPFVPLVLHEPIVDTVERNNVNTTSDKLIEFDLNTVKISDLAFKSNFKLTAKRQDMINGIVTWFDIVFPAPKGKRPVEFSTGPHAPYTHWKQTIFYFPDDLDAETGDTIEGELVCSPNEKNNRDLNIKISYKFESNGIDGNSRSRKNEGSYLMH
B3: Snf11 (endogenous) (protein, UniProt P38956 1-169)
chain: MSSEIAYSNTNTNTENENRNTGAGVDVNTNANANANATANATANATANATAELNLPTVDEQRQYKVQLLLHINSILLARVIQMNNSLQNNLQNNINNSNNNNIIRIQQLISQFLKRVHANLQCISQINQGVPSAKPLILTPPQLANQQQPPQDILSKLYLLLARVFEIW

By UniProt entry, the sequences of proteins in these tests, tags left out.
UniProt P22082: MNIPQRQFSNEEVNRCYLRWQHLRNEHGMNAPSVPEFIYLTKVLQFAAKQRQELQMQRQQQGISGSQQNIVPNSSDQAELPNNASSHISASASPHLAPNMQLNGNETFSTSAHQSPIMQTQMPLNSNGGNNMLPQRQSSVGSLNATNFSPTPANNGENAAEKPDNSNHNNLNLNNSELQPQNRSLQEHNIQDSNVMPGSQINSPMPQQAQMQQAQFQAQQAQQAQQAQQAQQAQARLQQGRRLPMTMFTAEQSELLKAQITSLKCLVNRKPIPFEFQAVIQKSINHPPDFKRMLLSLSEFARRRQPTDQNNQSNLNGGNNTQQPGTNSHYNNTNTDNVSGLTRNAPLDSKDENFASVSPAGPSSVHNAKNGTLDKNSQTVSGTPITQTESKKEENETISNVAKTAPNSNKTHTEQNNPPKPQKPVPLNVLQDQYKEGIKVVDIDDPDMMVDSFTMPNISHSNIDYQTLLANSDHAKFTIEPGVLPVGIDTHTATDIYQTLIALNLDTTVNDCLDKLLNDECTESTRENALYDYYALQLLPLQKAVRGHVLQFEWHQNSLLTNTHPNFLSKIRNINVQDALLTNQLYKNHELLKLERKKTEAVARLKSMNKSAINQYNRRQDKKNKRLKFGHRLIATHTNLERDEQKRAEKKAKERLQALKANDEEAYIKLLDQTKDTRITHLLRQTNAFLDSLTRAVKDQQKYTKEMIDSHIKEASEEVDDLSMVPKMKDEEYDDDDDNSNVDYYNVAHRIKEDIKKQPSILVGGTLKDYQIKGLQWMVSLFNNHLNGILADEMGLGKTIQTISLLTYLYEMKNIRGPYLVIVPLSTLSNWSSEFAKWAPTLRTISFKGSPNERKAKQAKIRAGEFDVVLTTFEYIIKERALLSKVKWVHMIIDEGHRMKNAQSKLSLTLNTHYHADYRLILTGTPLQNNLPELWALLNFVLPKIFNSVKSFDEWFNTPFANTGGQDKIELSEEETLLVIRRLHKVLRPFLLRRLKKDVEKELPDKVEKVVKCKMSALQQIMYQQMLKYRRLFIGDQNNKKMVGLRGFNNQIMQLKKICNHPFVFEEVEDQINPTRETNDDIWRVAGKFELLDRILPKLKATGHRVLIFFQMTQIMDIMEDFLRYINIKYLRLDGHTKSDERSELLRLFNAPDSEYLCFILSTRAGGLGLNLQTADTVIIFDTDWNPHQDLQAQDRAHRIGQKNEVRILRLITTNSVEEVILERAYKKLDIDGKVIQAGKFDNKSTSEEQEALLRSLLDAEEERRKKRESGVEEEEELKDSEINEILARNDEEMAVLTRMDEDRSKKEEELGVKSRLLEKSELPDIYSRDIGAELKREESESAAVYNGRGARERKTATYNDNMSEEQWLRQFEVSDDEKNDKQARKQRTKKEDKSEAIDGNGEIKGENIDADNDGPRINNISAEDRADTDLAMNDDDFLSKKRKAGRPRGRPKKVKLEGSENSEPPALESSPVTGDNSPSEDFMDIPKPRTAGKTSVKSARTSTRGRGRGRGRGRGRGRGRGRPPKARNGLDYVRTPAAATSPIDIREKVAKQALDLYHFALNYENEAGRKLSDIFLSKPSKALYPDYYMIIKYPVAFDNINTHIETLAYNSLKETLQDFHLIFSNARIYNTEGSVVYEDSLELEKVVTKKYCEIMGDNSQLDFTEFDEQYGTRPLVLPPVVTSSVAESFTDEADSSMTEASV
UniProt P53628: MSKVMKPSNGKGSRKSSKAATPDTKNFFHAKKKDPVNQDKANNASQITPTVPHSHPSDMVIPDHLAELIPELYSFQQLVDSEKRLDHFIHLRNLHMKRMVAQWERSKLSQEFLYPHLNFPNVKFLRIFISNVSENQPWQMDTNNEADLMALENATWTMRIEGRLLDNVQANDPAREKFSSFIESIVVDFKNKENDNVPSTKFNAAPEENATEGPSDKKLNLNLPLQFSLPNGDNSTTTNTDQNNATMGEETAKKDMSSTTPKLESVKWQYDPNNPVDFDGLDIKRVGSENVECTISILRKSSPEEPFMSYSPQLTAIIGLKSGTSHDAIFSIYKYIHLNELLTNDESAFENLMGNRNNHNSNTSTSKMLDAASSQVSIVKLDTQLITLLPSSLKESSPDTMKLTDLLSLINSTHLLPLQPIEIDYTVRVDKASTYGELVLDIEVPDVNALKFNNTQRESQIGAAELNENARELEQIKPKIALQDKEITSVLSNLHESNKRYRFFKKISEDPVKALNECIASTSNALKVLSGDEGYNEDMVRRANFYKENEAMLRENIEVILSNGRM
UniProt P43554: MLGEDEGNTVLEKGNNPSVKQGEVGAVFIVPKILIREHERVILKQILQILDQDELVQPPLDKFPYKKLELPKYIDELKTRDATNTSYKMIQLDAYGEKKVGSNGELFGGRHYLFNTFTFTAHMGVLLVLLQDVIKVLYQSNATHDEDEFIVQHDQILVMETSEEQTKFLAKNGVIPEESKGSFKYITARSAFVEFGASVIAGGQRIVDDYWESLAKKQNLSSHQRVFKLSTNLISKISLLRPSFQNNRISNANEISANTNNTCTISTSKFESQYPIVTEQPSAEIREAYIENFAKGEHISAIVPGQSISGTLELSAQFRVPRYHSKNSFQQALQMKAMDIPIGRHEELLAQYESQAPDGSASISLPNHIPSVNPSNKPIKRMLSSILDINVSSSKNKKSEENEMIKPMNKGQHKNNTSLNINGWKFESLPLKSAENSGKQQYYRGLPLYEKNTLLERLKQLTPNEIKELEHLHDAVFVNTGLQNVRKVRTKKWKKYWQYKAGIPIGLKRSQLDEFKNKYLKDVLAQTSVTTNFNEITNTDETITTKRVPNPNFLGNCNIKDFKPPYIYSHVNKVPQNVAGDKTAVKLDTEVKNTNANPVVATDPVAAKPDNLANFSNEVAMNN
UniProt P18480: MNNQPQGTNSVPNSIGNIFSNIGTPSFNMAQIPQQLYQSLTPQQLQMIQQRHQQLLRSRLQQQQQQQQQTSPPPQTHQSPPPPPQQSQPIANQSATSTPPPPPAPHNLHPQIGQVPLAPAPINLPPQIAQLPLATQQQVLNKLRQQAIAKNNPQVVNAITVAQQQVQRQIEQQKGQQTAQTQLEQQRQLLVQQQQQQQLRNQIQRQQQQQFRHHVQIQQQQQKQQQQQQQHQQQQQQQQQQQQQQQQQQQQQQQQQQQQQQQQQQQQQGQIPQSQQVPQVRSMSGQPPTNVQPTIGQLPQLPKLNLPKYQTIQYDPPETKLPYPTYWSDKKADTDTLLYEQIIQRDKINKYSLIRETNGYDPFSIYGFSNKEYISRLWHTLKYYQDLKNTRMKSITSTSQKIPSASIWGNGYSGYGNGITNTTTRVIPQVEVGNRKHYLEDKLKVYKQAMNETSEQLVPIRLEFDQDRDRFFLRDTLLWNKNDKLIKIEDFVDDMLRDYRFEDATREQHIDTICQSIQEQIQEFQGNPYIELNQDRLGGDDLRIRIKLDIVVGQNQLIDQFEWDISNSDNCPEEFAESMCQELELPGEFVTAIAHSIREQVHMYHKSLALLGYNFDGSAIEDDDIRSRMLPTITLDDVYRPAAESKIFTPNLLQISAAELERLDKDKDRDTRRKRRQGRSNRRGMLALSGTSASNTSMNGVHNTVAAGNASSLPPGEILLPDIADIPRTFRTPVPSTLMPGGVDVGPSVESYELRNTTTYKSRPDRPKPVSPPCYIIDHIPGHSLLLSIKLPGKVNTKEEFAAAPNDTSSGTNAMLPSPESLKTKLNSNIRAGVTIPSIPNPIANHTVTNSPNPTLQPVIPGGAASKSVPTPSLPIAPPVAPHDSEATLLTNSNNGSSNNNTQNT
UniProt P18888: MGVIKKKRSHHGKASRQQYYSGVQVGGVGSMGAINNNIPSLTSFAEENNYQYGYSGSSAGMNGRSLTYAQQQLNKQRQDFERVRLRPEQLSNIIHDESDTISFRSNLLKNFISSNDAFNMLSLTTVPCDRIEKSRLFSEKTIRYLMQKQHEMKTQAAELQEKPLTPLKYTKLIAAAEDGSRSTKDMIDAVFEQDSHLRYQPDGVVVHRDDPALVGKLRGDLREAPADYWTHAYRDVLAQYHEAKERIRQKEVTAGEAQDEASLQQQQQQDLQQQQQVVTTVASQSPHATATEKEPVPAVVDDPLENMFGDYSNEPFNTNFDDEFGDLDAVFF
UniProt P09547: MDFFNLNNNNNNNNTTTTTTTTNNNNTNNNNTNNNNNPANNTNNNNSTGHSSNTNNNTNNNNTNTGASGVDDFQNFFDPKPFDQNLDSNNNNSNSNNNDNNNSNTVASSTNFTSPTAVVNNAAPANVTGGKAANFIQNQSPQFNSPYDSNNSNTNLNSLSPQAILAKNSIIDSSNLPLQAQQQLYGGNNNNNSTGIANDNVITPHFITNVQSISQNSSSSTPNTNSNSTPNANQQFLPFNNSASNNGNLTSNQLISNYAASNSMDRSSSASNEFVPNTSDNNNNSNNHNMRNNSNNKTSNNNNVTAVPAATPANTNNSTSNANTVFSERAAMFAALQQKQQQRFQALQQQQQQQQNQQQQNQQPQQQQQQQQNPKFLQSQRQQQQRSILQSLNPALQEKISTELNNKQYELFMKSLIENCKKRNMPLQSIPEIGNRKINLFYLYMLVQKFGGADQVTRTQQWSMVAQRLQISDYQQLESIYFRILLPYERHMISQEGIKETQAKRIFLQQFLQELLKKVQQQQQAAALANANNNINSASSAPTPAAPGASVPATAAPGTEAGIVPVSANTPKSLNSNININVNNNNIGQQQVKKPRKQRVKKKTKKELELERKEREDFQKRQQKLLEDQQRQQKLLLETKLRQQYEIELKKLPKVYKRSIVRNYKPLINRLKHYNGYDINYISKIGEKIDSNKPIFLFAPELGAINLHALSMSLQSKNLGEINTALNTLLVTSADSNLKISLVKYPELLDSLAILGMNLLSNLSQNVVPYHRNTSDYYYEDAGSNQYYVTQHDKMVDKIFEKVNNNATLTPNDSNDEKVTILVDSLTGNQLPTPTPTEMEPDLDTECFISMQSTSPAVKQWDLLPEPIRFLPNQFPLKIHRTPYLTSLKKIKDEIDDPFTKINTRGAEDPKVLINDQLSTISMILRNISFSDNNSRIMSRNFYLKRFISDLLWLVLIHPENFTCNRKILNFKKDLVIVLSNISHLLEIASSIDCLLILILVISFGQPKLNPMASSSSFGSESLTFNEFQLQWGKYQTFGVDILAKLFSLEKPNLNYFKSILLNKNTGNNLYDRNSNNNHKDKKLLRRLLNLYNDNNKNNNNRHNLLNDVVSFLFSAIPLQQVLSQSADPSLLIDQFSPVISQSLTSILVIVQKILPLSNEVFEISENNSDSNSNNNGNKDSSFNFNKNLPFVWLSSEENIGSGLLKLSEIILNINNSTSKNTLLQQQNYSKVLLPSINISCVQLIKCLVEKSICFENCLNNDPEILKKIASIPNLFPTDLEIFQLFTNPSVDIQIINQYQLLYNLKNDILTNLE
UniProt P35189: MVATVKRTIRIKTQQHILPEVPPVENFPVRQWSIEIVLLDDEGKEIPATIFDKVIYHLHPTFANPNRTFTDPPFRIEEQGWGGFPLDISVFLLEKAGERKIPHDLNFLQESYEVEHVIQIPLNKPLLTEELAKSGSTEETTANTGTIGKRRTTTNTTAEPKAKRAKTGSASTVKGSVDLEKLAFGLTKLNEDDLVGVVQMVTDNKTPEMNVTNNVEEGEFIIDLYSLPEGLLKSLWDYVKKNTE
UniProt P32591: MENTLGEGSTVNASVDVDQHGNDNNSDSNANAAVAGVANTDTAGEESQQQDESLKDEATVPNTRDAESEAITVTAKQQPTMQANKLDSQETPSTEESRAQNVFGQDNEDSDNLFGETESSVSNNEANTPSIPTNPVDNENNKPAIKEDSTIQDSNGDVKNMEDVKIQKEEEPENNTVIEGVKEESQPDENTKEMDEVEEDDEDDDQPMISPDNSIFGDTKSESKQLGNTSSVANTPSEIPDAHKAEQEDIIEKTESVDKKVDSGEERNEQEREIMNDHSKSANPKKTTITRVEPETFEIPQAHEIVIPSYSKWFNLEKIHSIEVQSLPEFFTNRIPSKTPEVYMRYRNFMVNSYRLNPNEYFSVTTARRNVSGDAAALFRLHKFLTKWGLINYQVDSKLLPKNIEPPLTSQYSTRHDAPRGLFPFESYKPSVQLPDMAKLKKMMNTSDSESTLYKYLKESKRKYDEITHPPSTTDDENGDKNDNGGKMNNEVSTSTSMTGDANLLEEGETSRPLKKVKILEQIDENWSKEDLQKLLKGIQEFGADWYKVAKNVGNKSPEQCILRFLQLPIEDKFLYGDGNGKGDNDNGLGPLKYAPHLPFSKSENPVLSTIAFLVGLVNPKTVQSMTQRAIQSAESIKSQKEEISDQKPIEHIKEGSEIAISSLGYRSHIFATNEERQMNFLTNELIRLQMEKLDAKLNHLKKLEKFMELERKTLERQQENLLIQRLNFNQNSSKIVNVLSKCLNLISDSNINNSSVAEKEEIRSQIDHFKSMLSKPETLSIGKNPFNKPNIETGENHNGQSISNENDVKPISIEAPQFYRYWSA

Biological target: Snf2-GFP (S. cerevisiae) (UniProt P22082)
Test: affinity purification with mass spectrometry; Snf2-GFP purified from WT and set1∆ cells on GFP nanobody-coated Dynabeads in TMG 50; compared with a no-tag control

binding | Molecule
binds | Snf12 (endogenous) (from UniProt P53628 1-566)
binds | Swp82 (endogenous) (from UniProt P43554 1-623)
binds | Arp7 (endogenous) (from UniProt Q12406 1-477)
binds | Snf5 (endogenous) (from UniProt P18480 1-905)
binds | Snf6 (endogenous) (from UniProt P18888 1-332)
binds | Swi1 (endogenous) (from UniProt P09547 1-1314)
binds | Taf14 (endogenous) (from UniProt P35189 1-244)
binds | Swi3 (endogenous) (from UniProt P32591 1-825)
binds | Rtt102 (endogenous) (from UniProt P53330 1-157)
binds | Arp9 (endogenous) (from UniProt Q05123 1-467)
binds | B1
no binding | B2
binds | B3

— paper PMC13581290, “A systematic interactome of Saccharomyces cerevisiae SET1C expands its functional landscape and identifies candidate regulatory connections” (eLife, 2026)
